Paper PMC12930632, “Free fatty acid receptor 2 allosterism is defined by cellular context” (Cell Communication and Signaling : CCS, 2026)
No constants are given. Whether binding was seen depends on the method and setting. Binding seen in cells or lysates may run through a third protein. Some results given as binding are weak or reduced against the parent protein; the word gives no strength.

Chains of the proteins cited; added tags and fusions are not shown.
UniProt P32121: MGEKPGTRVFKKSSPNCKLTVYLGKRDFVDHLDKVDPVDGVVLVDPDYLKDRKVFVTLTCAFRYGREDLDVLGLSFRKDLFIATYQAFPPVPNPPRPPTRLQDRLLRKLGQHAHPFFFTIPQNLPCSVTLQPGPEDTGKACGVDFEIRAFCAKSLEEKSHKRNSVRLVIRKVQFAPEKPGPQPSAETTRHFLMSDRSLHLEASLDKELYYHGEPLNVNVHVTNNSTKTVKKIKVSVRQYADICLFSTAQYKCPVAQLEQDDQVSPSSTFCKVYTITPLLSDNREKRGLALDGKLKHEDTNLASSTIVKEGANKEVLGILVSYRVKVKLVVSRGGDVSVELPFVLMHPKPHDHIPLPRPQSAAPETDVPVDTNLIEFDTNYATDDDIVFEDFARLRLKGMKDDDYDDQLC

Tests used:
[1] = target: T1, FFA2R-SmBiT (human) (UniProt O15552); assay: condition: only with Cmp58, AZ1729 or their combination, without propionate; split reporter; live HEK293T cells co-transfected with FFA2R-SmBiT and β-arrestin-LgBiT; HBSS, 37 °C, Nano-Glo substrate; Cmp58, AZ1729 or their combination alone, no propionate
T1 sequence: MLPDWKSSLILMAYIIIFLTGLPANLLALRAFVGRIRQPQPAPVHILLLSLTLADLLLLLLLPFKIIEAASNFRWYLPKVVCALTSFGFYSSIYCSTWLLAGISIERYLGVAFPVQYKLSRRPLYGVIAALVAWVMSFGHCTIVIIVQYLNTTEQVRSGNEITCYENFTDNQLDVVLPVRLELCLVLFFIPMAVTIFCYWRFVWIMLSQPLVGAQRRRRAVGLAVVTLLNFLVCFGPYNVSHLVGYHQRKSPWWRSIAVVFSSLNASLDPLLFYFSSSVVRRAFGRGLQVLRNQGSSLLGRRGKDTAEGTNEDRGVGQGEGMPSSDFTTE

[2] = target: T1, FFA2R-SmBiT (human); assay: split reporter; live HEK293T cells co-transfected with FFA2R-SmBiT and β-arrestin-LgBiT; HBSS, 37 °C, Nano-Glo substrate; luminescence after propionate (concentration series), with or without Cmp58

binding [1]: no binding | binding [2]: binds
Substance: β-arrestin-LgBiT (β-arrestin2) (from UniProt P32121 1-409)
